The values below come from patent publication US20250320282A1 (MABYLON, published 2025).

Results are given in words; binding and its absence hold for the method and conditions named. Some entries that bind do so weakly or less than the wild type. Sequences can lack the tags named with a protein.

The assay concerns the target T1, Ara h 2 (Arachis hypogaea allergen 2) (Arachis hypogaea, UniProt Q6PSU2 22-172).
T1 construct: Peanut allergen; also called nAra h 2; natural Ara h 2
T1 sequence: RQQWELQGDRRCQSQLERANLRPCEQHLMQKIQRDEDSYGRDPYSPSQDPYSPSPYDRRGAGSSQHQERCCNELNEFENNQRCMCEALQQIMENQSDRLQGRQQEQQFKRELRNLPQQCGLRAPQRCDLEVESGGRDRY
The assay is described as follows: ELISA, Fab titration on coated Ara h 2. (An ELISA detects its analyte on a solid surface through an enzyme-linked reagent.)

B1: MY006-15E3 Fab Hg Lg (Fab, V domains shown)
VH: EVQLVESGGGLVQPGGSLRLSCAASGFKFSTFYMTWIRQAPGKGLEWVANIKQDGSEKDYLDSVRGRFTISRDNAKSSLYLQMNSLRAEDTAVYYCTRNGLQDSYSGDFFDHWGQGTLVTVSS
VL: QSVLTQPPSVSAAPGQKVTISCSGTGSNIGHNYVSWYQQLPGTAPKLLIFDNTKRPSGIPDRFSGSKSGSSATLGITGLQTGDEADYFCATWDADLSAVLFGGGTKLTVL
notes: Germlined variant, IgG1-Fab format
Take B1: the binding entry is listed as “binds”.

B2: MY006-15E3 Fab Lf (Fab, V domains shown)
VH: EVQLVESGGALVQPGGSLRLSCAASGFKFSTFYMTWIRQAPGKGLEWVANIKQDGSEKDYLDSVRGRFNISRDNAKSVLYLQMNTLSADDTGVYYCTRNGLQDSYSGDFFDHWGQGILVTVSS
VL: QSVLTQPPSVSAAPGQKVTISCSGTGSNIGHNYVSWYQQLPGTAPKLLIYDNTKRPSGIPDRFSGSKSGTSATLGITGLQTGDEADYYCATWDADLSAVLFGGGTKLTVL
notes: Germlined variant, IgG1-Fab format; also called 15E3 Lf
Regarding B2, the binding entry was “binds”.

B3: MY006-15E3 Fab Lg (Fab, V domains shown)
VH: EVQLVESGGALVQPGGSLRLSCAASGFKFSTFYMTWIRQAPGKGLEWVANIKQDGSEKDYLDSVRGRFNISRDNAKSVLYLQMNTLSADDTGVYYCTRNGLQDSYSGDFFDHWGQGILVTVSS
VL: QSVLTQPPSVSAAPGQKVTISCSGTGSNIGHNYVSWYQQLPGTAPKLLIFDNTKRPSGIPDRFSGSKSGSSATLGITGLQTGDEADYFCATWDADLSAVLFGGGTKLTVL
notes: Germlined variant, IgG1-Fab format; also called 15E3 Lg
Take B3: the binding entry is given as “binds”.

B4: MY006-15E3 Fab Hf Lf (Fab, V domains shown)
VH: EVQLVESGGGLVQPGGSLRLSCAASGFKFSTFYMTWVRQAPGKGLEWVANIKQDGSEKDYLDSVRGRFTISRDNAKNSLYLQMNSLRAEDTAVYYCTRNGLQDSYSGDFFDHWGQGTLVTVSS
VL: QSVLTQPPSVSAAPGQKVTISCSGTGSNIGHNYVSWYQQLPGTAPKLLIYDNTKRPSGIPDRFSGSKSGTSATLGITGLQTGDEADYYCATWDADLSAVLFGGGTKLTVL
notes: as for B1
As to B4, the binding entry is given as “binds”.

B5: MY006-15E3 Fab Hg Lf (Fab, V domains shown)
VH: EVQLVESGGGLVQPGGSLRLSCAASGFKFSTFYMTWIRQAPGKGLEWVANIKQDGSEKDYLDSVRGRFTISRDNAKSSLYLQMNSLRAEDTAVYYCTRNGLQDSYSGDFFDHWGQGTLVTVSS
VL: QSVLTQPPSVSAAPGQKVTISCSGTGSNIGHNYVSWYQQLPGTAPKLLIYDNTKRPSGIPDRFSGSKSGTSATLGITGLQTGDEADYYCATWDADLSAVLFGGGTKLTVL
notes: as for B1
Take B5: the binding result is listed as “binds”.

B6: MY006-15E3 Fab Hg (Fab, V domains shown)
VH: EVQLVESGGGLVQPGGSLRLSCAASGFKFSTFYMTWIRQAPGKGLEWVANIKQDGSEKDYLDSVRGRFTISRDNAKSSLYLQMNSLRAEDTAVYYCTRNGLQDSYSGDFFDHWGQGTLVTVSS
VL: QSVLTQPPSISAAPGQKVTISCSGTGSNIGHNYVSWYQQLPRTAPRLLIFDNTKRPSGIPDRFSGSKSGSSATLGITGLQTGDEAHYFCATWDADLSAVLFGGGTKLTVL
notes: Germlined variant, IgG1-Fab format; also called 15E3 Hg
As for B6, the binding entry is on record as “binds”.

B7: MY006-15E3 Fab Hf (Fab, V domains shown)
VH: EVQLVESGGGLVQPGGSLRLSCAASGFKFSTFYMTWVRQAPGKGLEWVANIKQDGSEKDYLDSVRGRFTISRDNAKNSLYLQMNSLRAEDTAVYYCTRNGLQDSYSGDFFDHWGQGTLVTVSS
VL: QSVLTQPPSISAAPGQKVTISCSGTGSNIGHNYVSWYQQLPRTAPRLLIFDNTKRPSGIPDRFSGSKSGSSATLGITGLQTGDEAHYFCATWDADLSAVLFGGGTKLTVL
notes: Germlined variant, IgG1-Fab format; also called 15E3 Hf
For the molecule B7, the binding entry was “binds”.

B8: MY006-15E3 Fab Hf Lg (Fab, V domains shown)
VH: EVQLVESGGGLVQPGGSLRLSCAASGFKFSTFYMTWVRQAPGKGLEWVANIKQDGSEKDYLDSVRGRFTISRDNAKNSLYLQMNSLRAEDTAVYYCTRNGLQDSYSGDFFDHWGQGTLVTVSS
VL: QSVLTQPPSVSAAPGQKVTISCSGTGSNIGHNYVSWYQQLPGTAPKLLIFDNTKRPSGIPDRFSGSKSGSSATLGITGLQTGDEADYFCATWDADLSAVLFGGGTKLTVL
notes: Germlined variant, IgG1-Fab format; also called 15E3: Hf/Lg
B8: the binding result is “binds”.

B9: MY006-2F8 Fab Hg (Fab, V domains shown)
VH: EVQLVESGGGLVQPGGSLRLSCAASGFIFSDYNMNWVRQAPGKGLEWVSSITRSSRTIYYADSVKGRFTISRDNAKNSLYLQMNSLRDEDTAVYYCAREDFDVSTGPYYMDVWGKGTTVTVSS
VL: EIVLTQSPGTLSLSPGERATLSCRASQSVSNMFLVWYQQKPGQAPRLLMYGASTRATDIPDRFSGSGSGTDFTLTISRLEPEDFAVYYCQQNGNSPYTFGQGTKLEIK
notes: Germlined variant, IgG1-Fab format; also called 2F8 Hg
With B9, the binding result was “binds”.

B10: MY006-2F8 Fab Lf (Fab, V domains shown)
VH: EVQLVESGGGLVKPGGSLRLSCAASGFIFSDYNMNWVRQAPGKGLEWVSSITRSSRTIYYADSVKGRFTISRDNAKNSLHLQMNSLRDADTAVYYCAREDFDVSTGPYYMDVWGNGTTVIVSS
VL: EIVLTQSPGTLSLSPGERATLSCRASQSVSNMFLVWYQQKPGQAPRLLIYGASTRATGIPDRFSGSGSGTDFTLTISRLEPEDFAVYYCQQNGNSPYTFGQGTKLEIK
notes: Germlined variant, IgG1-Fab format; also called 2F8 Lf
Turning to B10, the binding entry is reported as “binds”.

B11: MY006-2F8 Fab Hg Lg (Fab, V domains shown)
VH: EVQLVESGGGLVQPGGSLRLSCAASGFIFSDYNMNWVRQAPGKGLEWVSSITRSSRTIYYADSVKGRFTISRDNAKNSLYLQMNSLRDEDTAVYYCAREDFDVSTGPYYMDVWGKGTTVTVSS
VL: EIVLTQSPGTLSLSPGERATLSCRASQSVSNMFLVWYQQKPGQAPRLLMYGASTRATGIPDRFSGSGSGTDFTLTISRLEPEDFAVYYCQQNGNSPYTFGQGTKLEIK
notes: as for B1
In the case of B11, the binding result was “binds”.

B12: MY006-7G6 Fab Hg Lg (Fab, V domains shown)
VH: QVQLVESGGGVVQPGRSLRLSCAASGIAFNDYTMHWVRRAPGKGLEWVAAISYGGTNKYYADSVKGRFTISRDSSKNTLYLQMNSLRAEDTAVYYCARDSGYRSLLHWGQGTLVTVSS
VL: EIVLTQSPLSLPVTPGEPASISCRSSQSLVHRNGYNYLDWYLQKPGQSPQLLIYMASKRASGVPDRFSGSGSGTDFTLKISRVEAEDVGVYYCMQALQTWTFGQGTKVEIK
notes: as for B1
With B12, the binding result is on record as “binds”.

B13: MY006-7G6 Fab Hg (Fab, V domains shown)
VH: QVQLVESGGGVVQPGRSLRLSCAASGIAFNDYTMHWVRRAPGKGLEWVAAISYGGTNKYYADSVKGRFTISRDSSKNTLYLQMNSLRAEDTAVYYCARDSGYRSLLHWGQGTLVTVSS
VL: EIVLTQSPLSLPVTPGEPASISCRSSQSLVHRNGYNYLDWYLQKPGQSPQLLIYMASKRASGVPDRFSGSGSGTEFTLKISRVEAEDVGIYYCMQALQTWTFGQGTKVEVN
notes: Germlined variant, IgG1-Fab format; also called 7G6 Hg
With B13, the binding entry is on record as “binds”.

B14: MY006-7G6 Fab Hf (Fab, V domains shown)
VH: QVQLVESGGGVVQPGRSLRLSCAASGIAFNDYTMHWVRQAPGKGLEWVAAISYGGTNKYYADSVKGRFTISRDNSKNTLYLQMNSLRAEDTAVYYCARDSGYRSLLHWGQGTLVTVSS
VL: EIVLTQSPLSLPVTPGEPASISCRSSQSLVHRNGYNYLDWYLQKPGQSPQLLIYMASKRASGVPDRFSGSGSGTEFTLKISRVEAEDVGIYYCMQALQTWTFGQGTKVEVN
notes: Germlined variant, IgG1-Fab format; also called 7G6 Hf
Turning to B14, the binding result is reported as “binds”.

B15: MY006-7G6 Fab Hg Lf (Fab, V domains shown)
VH: QVQLVESGGGVVQPGRSLRLSCAASGIAFNDYTMHWVRRAPGKGLEWVAAISYGGTNKYYADSVKGRFTISRDSSKNTLYLQMNSLRAEDTAVYYCARDSGYRSLLHWGQGTLVTVSS
VL: DIVMTQSPLSLPVTPGEPASISCRSSQSLVHRNGYNYLDWYLQKPGQSPQLLIYMASKRASGVPDRFSGSGSGTDFTLKISRVEAEDVGVYYCMQALQTWTFGQGTKVEIK
notes: as for B1
In the case of B15, the binding entry is “binds”.

B16: MY006-7G6 Fab Hf Lf (Fab, V domains shown)
VH: QVQLVESGGGVVQPGRSLRLSCAASGIAFNDYTMHWVRQAPGKGLEWVAAISYGGTNKYYADSVKGRFTISRDNSKNTLYLQMNSLRAEDTAVYYCARDSGYRSLLHWGQGTLVTVSS
VL: DIVMTQSPLSLPVTPGEPASISCRSSQSLVHRNGYNYLDWYLQKPGQSPQLLIYMASKRASGVPDRFSGSGSGTDFTLKISRVEAEDVGVYYCMQALQTWTFGQGTKVEIK
notes: as for B1
For B16, the binding entry was “binds”.

B17: MY006-7G6 Fab Hf Lg (Fab, V domains shown)
VH: QVQLVESGGGVVQPGRSLRLSCAASGIAFNDYTMHWVRQAPGKGLEWVAAISYGGTNKYYADSVKGRFTISRDNSKNTLYLQMNSLRAEDTAVYYCARDSGYRSLLHWGQGTLVTVSS
VL: EIVLTQSPLSLPVTPGEPASISCRSSQSLVHRNGYNYLDWYLQKPGQSPQLLIYMASKRASGVPDRFSGSGSGTDFTLKISRVEAEDVGVYYCMQALQTWTFGQGTKVEIK
notes: Germlined variant, IgG1-Fab format; also called 7G6: Hf/Lg
On to B17, for which the binding entry is “binds”.

B18: MY006-7G6 Fab Lg (Fab, V domains shown)
VH: QVQLVESGGGVVQPGRSLRLSCAASGIAFNDYTMHWVRRSPDKGLEWVAAISYGGTNKYYADSVKGRFTISRDSSKNTLFLQMDSLRVEDTAVYYCARDSGYRSLLHWGQGTLVTVSS
VL: EIVLTQSPLSLPVTPGEPASISCRSSQSLVHRNGYNYLDWYLQKPGQSPQLLIYMASKRASGVPDRFSGSGSGTDFTLKISRVEAEDVGVYYCMQALQTWTFGQGTKVEIK
notes: Germlined variant, IgG1-Fab format; also called 7G6 Lg
As for B18, the binding result is “binds”.

B19: MY006-7G6 Fab Lf (Fab, V domains shown)
VH: QVQLVESGGGVVQPGRSLRLSCAASGIAFNDYTMHWVRRSPDKGLEWVAAISYGGTNKYYADSVKGRFTISRDSSKNTLFLQMDSLRVEDTAVYYCARDSGYRSLLHWGQGTLVTVSS
VL: DIVMTQSPLSLPVTPGEPASISCRSSQSLVHRNGYNYLDWYLQKPGQSPQLLIYMASKRASGVPDRFSGSGSGTDFTLKISRVEAEDVGVYYCMQALQTWTFGQGTKVEIK
notes: Germlined variant, IgG1-Fab format; also called 7G6 Lf
Consider B19, for which the binding entry is “binds”.

B20: MY006-17H9 Fab Hg (Fab, V domains shown)
VH: QVQLVESGGGVVQPGRSLRLSCAASGSTLGTYGMHWVRQAPGKGLEWVAIISPDGGHQDYADPVRGRFTVSRDNSKNTLYLQMNSLRAEDTAVYYCATTLCARTDCTWVRSDSWGQGTLVTVSS
VL: ANVLTQSPGTLSLSPGERATLSCRASQRVSGDYLAWYQQKRGQAPRLLIYGASSRATGIPDRFSGSGSGTDFTLTISRLEPEDFAVYYCQHYNGPPVTFGQGTKLEIK
In the case of B20, the binding entry is “binds”.
